Measured values published in publication PMC11255299.
These are yes or no findings as the source states them, for the method shown. Binding seen in cells or lysates may run through a third protein. Some binding calls cover weakened binding; strength is not graded here. For part of these data: Sequences can lack the tags named with a protein.

Chains of the proteins cited; added tags and fusions are not shown. Lines headed by an entry give the natural chain unless they say otherwise; changes in a name come on top.
UniProt P09874: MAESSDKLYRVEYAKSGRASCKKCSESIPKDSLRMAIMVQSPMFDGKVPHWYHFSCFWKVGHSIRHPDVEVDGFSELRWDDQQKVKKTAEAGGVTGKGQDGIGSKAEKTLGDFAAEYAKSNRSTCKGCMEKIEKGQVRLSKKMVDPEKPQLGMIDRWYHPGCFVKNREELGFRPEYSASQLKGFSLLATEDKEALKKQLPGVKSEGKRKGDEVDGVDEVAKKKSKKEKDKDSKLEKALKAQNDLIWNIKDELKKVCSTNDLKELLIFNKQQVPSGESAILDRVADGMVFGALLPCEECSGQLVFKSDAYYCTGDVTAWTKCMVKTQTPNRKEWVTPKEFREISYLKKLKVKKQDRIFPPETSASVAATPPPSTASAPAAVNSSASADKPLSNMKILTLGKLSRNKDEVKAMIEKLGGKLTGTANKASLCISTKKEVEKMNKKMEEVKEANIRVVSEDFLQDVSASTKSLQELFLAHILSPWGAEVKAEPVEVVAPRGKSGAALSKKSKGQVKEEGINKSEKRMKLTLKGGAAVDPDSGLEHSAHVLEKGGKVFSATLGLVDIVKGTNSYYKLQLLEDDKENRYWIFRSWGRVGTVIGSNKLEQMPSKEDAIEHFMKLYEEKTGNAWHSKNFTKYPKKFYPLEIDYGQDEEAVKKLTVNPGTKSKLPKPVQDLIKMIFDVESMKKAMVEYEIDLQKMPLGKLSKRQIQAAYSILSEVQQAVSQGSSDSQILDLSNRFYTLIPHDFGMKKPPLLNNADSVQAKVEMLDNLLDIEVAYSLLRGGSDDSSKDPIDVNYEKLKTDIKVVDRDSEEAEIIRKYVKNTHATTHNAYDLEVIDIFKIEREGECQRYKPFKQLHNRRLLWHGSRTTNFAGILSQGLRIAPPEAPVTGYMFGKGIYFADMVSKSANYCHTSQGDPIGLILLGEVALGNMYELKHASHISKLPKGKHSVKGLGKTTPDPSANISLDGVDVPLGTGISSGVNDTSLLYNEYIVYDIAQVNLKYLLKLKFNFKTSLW
UniProt Q08211: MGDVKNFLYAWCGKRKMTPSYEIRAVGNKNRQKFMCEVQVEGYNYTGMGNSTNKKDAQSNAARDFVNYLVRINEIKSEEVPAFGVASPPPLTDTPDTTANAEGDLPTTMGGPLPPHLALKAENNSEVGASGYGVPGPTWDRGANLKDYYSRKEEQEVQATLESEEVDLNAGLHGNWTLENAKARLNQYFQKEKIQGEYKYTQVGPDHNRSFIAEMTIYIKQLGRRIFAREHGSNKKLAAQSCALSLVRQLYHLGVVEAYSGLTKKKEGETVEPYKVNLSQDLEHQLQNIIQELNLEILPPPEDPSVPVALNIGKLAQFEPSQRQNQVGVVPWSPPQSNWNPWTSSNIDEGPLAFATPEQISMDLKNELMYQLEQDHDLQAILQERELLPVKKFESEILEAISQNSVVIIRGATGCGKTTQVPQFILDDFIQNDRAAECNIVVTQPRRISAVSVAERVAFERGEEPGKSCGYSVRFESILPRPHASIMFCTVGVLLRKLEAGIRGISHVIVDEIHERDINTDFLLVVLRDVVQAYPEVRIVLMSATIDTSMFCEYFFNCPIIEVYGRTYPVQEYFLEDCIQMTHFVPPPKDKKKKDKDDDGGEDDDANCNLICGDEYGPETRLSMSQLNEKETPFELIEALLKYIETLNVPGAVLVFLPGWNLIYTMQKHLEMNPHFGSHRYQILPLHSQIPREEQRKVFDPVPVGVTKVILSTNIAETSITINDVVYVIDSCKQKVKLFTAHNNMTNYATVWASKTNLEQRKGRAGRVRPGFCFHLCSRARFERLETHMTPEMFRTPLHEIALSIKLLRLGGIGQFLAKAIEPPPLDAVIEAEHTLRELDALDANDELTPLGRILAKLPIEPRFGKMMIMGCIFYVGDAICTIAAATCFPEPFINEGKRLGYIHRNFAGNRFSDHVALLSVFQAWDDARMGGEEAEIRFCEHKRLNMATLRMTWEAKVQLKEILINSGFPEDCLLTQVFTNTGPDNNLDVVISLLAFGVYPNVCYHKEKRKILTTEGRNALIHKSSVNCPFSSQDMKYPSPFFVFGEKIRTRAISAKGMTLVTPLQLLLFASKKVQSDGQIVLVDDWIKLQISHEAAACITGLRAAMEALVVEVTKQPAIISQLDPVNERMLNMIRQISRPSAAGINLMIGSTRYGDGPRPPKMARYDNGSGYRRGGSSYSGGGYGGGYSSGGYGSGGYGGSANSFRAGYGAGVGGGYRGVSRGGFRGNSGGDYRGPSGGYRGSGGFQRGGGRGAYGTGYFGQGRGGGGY
UniProt P61956: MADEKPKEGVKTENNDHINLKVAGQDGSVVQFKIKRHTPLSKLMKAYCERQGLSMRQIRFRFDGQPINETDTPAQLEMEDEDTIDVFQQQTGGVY
UniProt O75533: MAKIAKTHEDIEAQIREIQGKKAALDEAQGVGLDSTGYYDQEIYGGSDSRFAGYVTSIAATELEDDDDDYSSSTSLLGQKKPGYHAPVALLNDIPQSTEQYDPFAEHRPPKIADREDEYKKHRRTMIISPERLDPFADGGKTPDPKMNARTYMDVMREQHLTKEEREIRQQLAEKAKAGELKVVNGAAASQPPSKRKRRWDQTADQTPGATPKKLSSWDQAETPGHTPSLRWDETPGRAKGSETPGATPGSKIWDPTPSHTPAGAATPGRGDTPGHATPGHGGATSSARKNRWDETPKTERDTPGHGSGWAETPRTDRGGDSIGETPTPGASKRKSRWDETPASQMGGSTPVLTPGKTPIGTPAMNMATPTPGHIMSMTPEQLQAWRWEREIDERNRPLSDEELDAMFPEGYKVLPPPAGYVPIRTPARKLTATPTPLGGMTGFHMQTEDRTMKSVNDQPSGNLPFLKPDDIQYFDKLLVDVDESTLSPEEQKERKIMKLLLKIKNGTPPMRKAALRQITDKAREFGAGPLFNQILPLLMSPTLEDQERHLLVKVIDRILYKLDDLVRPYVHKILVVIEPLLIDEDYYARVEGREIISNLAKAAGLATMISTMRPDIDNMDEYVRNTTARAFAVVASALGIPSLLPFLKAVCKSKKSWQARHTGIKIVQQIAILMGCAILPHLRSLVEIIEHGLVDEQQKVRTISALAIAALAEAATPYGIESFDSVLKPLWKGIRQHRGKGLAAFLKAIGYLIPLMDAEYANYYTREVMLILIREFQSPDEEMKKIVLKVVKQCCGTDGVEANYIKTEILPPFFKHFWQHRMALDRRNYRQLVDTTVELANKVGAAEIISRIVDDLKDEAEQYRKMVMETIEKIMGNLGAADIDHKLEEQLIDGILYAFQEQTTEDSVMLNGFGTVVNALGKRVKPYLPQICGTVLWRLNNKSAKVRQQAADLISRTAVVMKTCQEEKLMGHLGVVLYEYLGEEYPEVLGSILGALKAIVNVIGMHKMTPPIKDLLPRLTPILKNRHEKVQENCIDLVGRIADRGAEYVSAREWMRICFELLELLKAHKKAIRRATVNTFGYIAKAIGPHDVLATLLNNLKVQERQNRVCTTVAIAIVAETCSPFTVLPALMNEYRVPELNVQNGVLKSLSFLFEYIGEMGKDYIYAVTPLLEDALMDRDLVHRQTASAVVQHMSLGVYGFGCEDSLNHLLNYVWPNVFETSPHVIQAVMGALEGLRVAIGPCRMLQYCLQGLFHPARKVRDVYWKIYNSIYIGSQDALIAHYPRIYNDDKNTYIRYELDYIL

Key:
HA-PARP1^WT (human) = HA-PARP1^WT (human) (UniProt P09874); assay: co-IP; HA affinity purification (anti-HA beads, room temperature, 1 h, NETN buffer) of HA-PARP1 or HA-DDX21 variants from transfected HeLa cells; DHX9 variants by Western blot
HA-DDX21^WT (human) = molecular target: T1, HA-DDX21^WT (human) (UniProt Q9NR30); assay: as above
T1 sequence: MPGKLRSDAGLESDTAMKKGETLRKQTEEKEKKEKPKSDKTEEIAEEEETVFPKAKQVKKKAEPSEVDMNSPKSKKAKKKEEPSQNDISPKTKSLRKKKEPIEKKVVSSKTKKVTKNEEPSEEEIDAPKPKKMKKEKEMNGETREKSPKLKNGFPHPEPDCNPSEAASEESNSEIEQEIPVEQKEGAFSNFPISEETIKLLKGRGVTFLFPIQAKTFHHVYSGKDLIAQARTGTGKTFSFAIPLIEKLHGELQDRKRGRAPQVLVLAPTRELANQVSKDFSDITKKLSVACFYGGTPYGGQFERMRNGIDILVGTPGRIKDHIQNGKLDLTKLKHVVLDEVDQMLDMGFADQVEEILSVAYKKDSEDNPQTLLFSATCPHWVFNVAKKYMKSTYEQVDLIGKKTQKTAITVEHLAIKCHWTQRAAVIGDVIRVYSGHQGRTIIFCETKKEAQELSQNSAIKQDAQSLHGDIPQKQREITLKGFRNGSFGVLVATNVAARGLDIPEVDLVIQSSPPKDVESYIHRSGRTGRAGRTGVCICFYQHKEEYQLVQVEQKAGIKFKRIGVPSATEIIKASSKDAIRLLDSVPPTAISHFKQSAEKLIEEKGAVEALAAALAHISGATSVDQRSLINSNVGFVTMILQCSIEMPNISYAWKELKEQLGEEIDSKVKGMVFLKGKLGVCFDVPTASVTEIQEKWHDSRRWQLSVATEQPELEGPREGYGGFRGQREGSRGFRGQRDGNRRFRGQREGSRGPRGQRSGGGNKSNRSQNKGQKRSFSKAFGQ

SFB-DHX9^K76R (human) = SFB-DHX9^K76R (human) (UniProt Q08211); assay: pull-down; SFB-DHX9 variants in lysates of transfected HeLa cells (NETN buffer: 20 mM Tris-HCl pH 8.0, 0.5 mM EDTA, 150 mM NaCl, 0.5% Igepal, 10% glycerol, 15 mM NEM) captured on Dynabeads M-280 streptavidin, 4 °C, 4 h; endogenous partners by Western blot
SFB-DHX9^WT (human) [1] = molecular target: SFB-DHX9^WT (human) (UniProt Q08211); assay: as above
SFB-DHX9^WT (human) [2] = molecular target: SFB-DHX9^WT (human) (UniProt Q08211); assay: pull-down; as a1, lysates (text: nuclear extracts) treated with RNase A (20 μg/mL) before SFB-tag pull-down

Substance | binding (HA-PARP1^WT (human)) | binding (HA-DDX21^WT (human)) | binding (SFB-DHX9^K76R (human)) | binding (SFB-DHX9^WT (human) [1]) | binding (SFB-DHX9^WT (human) [2])
SUMO2-DHX9^K120R (from UniProt P61956 12-91; Q08211 1-1270) | binds | binds |  |  | 
PARP1 (from UniProt P09874 1-1014) |  |  | binds |  | 
SF3B1 (from UniProt O75533 1-1304) |  |  | binds | binds | binds
